# Results are given in words; binding and its absence hold for the method and conditions named. In cells and extracts the contact can be indirect. Some results given as binding are weak or reduced against the parent protein; the word gives no strength. For some assays here: Where a sequence is shown, tags or fusion partners need not be part of it.
# Protein sequences, listed by entry. Tags and fused reporters are not part of them.
# UniProt P52701: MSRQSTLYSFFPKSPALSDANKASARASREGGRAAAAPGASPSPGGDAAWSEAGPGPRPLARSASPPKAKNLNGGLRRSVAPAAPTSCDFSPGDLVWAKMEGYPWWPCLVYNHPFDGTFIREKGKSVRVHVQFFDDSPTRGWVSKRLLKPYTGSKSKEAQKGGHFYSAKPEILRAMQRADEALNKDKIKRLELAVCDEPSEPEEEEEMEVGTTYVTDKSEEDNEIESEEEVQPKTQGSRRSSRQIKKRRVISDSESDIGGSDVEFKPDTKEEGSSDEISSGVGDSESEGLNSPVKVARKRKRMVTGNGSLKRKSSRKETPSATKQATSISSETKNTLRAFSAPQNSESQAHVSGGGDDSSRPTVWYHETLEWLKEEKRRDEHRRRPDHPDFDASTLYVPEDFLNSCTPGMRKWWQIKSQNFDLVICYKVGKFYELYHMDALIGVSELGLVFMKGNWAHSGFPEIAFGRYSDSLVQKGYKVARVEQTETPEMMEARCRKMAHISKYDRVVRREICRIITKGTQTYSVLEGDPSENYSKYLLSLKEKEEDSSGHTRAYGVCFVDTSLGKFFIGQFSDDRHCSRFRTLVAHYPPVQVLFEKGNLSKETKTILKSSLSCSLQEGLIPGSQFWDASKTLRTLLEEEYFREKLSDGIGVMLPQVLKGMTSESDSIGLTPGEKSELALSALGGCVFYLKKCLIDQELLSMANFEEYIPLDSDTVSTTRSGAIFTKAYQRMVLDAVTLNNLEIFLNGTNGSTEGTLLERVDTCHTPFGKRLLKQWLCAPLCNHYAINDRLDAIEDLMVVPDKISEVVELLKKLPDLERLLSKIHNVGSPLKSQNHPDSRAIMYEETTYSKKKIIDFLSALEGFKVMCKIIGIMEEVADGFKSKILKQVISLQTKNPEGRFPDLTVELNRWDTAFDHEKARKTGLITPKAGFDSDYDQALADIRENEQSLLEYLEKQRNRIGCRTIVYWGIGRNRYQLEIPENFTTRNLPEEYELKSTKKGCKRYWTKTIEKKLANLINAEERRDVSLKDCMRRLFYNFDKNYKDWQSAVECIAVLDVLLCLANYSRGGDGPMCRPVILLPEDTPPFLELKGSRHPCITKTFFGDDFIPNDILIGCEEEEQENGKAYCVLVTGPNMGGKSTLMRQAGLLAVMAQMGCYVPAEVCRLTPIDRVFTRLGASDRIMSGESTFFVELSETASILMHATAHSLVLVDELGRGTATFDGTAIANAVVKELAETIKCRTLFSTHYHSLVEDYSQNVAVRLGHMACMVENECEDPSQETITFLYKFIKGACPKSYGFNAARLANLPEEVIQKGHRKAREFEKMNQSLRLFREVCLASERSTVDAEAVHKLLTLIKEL
# Legend:
# [1] = target: C-terminal FLAG-tagged SETD2 (FLAG knock-in HeLa cells) (human (endogenous in HeLa)) (UniProt Q9BYW2); assay: co-IP; anti-Flag M2 affinity gel with lysates of FLAG-KI HeLa cells in RIPA buffer, overnight at 4 °C; with or without H2O2 treatment
# [2] = target: T1, GST-tagged SETD2 SET domain (aa 1418-1714), made in E. coli (human) (UniProt Q9BYW2); assay: pull-down; GST-SETD2 fragments from bacterial lysates held on GST beads, incubated with HeLa cell lysate in RIPA buffer; Western blot; only the target purified
# T1 sequence: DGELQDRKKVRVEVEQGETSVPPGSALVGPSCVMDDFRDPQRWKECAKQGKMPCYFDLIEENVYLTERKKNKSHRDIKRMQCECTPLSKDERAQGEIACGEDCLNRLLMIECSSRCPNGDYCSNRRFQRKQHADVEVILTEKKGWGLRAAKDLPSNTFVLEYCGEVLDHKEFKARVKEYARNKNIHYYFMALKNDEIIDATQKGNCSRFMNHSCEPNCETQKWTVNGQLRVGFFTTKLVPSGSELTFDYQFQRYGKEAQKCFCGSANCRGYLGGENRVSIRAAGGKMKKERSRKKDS
substance,measurement,setting,value
MSH6 (from UniProt P52701 1-1360),binding,[1],binds
same,binding,[2],binds

# From PMC9241034
